58 compounds from PubChem BioAssay AID2685 (National Center for Advancing Translational Sciences (NCATS), 2010) can be followed below.

The assay in a line: qHTS Assay for Lipid Storage Modulators in Drosophila S3 Cells.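 For cell number change: cells counted by Cell Tracker Red CMTPX staining in the red channel.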 Particulars: BODIPY lipid droplet fluorescence, 18-24 h; for cell number change: measured here: cell count max response, cells fed with added oleic acid. Put shortly:
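Laser-scanning cytometry quantifies lipid droplet accumulation (500–530 nm total intensity; droplet/cell object ratio) in oleic acid-fed (400 uM added) Drosophila S3 cells treated with a concentration series. 20 uM Triacsin C defined 100% inhibition.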
For orientation: In qHTS, concentration-response curves come from the screen itself.

[1] abbreviates: measured here: lipid fluorescence (Fed channel) AC50, cells fed with added oleic acid.
Setting [2] is: measured here: cell number channel AC50, cells fed with added oleic acid.

By AC50 is commonly meant the concentration giving half of the maximal activity seen.

Where “and” joins values, the source holds several entries; their conditions need not be identical. Identical values can stand only once. This is one part of the list. These are further read-outs of the screen, such as a control signal, another cell line or another target. No call is given for them. Most of these compounds were active or inconclusive in the main read-out, so they are no random draw. Potencies come from curve fits of mixed quality, noted in brackets.

As to `CCOc1ccc(Cc2c(O)[nH]c(=O)[nH]c2=O)cc1`, the cell number change was -5.47%.
For the compound `O=C(C1CCCN(c2nnc(-n3cccc3)s2)C1)N1CCC2(CC1)OCCO2` (configuration not stated), the AC50 under setting [1] is 6.51 µM [rising, single point].
For `OC12ONC(c3ccccn3)C1N1CCC2CC1` (configuration not stated), the cell number change was determined as 48.7%. Moreover, the half-maximal activity concentration (AC50) under setting [2] is 5.17 µM [rising, full curve]. The AC50 under setting [1] is 2.06 µM [rising, full curve].
Consider `CCN(CC)P(=O)(Oc1ccccc1)Oc1ccccc1`, for which the cell number change is 17.1%. Moreover, the AC50 under setting [2] was 0.00461 µM [rising, full curve, poor fit].
In the case of `CCC(COC(=O)c1cc(OC)c(OC)c(OC)c1)(c1ccccc1)N(C)C` (configuration not stated), the cell number change was -14.9% and -4.14%. In addition, under setting [1], the AC50 was 20.6 µM [rising, single point].
Regarding `COc1cc2[nH]c(=O)n(-c3ccc(C)cc3)c(=O)c2cc1OC`, the cell number change was found to be 19.7%. In addition, under setting [1], the AC50 was 1.3 µM [rising, partial curve].
Take `CCn1ccnc1CN1CCCC(C(=O)c2cc(C)c(OC)c(C)c2)C1` (configuration not stated): the cell number change was 15.7%. Further, the half-maximal activity concentration (AC50) under setting [1] was 29.1 µM [falling, single point].
Turning to `CCc1ccccc1N1C(=O)NC(=O)/C(=C\c2cc(C)n(C)c2C)C1=O`, the AC50 under setting [2] was 0.517 µM [rising, single point] and the half-maximal activity concentration (AC50) under setting [1] was 29.1 µM [rising, single point].
`COc1cc2[nH]c(=O)n(-c3cccc(Cl)c3)c(=O)c2cc1OC`: the cell number change was determined as 84.6%. Further, the AC50 under setting [2] was 16.4 µM [rising, single point].
With `COc1ccccc1OCC(=O)N1CCCC(N(C)Cc2ccccc2)C1` (configuration not stated), the AC50 under setting [1] is 29.1 µM [rising, single point].
Turning to `CN(C)C1=NP(N(C)C)(N(C)C)=NC(c2ccccc2)=N1`, the cell number change is -17.3%.
Regarding `CC(=O)Nc1ccccc1C(=O)C(=O)Nc1cccc(C(=O)N2CCC3(CC2)OCCO3)c1`, under setting [1], the half-maximal activity concentration (AC50) is 0.731 µM [falling, single point].
Take `O=C(C1CC(=O)N(C2CCCCCCC2)C1)N1CCC2(CC1)OCCO2` (configuration not stated): the cell number change is -32.9%. For the same compound, under setting [2], the AC50 is 9.2 µM [falling, partial curve, poor fit]. Besides, the concentration at half-maximal activity (AC50) under setting [1] is 14.6 µM [falling, partial curve].
With `CC(=O)c1cn(Cc2ccc(F)cc2)c2ccccc12`, the cell number change amounted to 24.9%. Further, the concentration at half-maximal activity (AC50) under setting [1] was 20.6 µM [rising, single point].
As to `Cc1cc(C)nc(N2Cc3ccccc3C2=N)n1`, the cell number change was 15.4%. Besides, the half-maximal activity concentration (AC50) under setting [1] was 0.00411 µM [rising, full curve, poor fit].
For `Cc1ccc(NC2=NCCCS2)cc1Cl`, the cell number change was 9.66%. In addition, the concentration at half-maximal activity (AC50) under setting [1] is 6.51 µM [falling, single point].
For `CCOc1cccc(N2C(=O)CC(=O)NC2=O)c1`, the cell number change is -217%.
For the compound `O=c1[nH]c(=O)n(Cc2ccc(F)cc2)c(O)c1C=NCCCN1CCOCC1`, the cell number change was -10.1%. For the same compound, the concentration at half-maximal activity (AC50) under setting [2] was 1.16 µM [falling, full curve, poor fit].
In the case of `Cc1cccc(OP(N)(N)=O)c1C`, the cell number change is -8.1%. Also, under setting [2], the half-maximal activity concentration (AC50) is 0.13 µM [falling, partial curve, poor fit].
For `O=c1[nH]c(=O)n(CCC2=CCCCC2)c(O)c1C=NCc1cccnc1`, the cell number change was 10.5%. Moreover, the AC50 under setting [1] was 6.51 µM [falling, single point].
Consider `Cn1cc(C(=O)Cc2ccccc2)c2ccccc21`, for which the cell number change turned out to be 21.5%. Besides, the AC50 under setting [1] was 4.61 µM [rising, partial curve, poor fit].
With `COc1ccc(Cl)cc1C(=O)C1CCCN(Cc2cnc(C)s2)C1` (configuration not stated), the cell number change is -3.61%. For the same compound, under setting [1], the AC50 is 0.58 µM [falling, full curve, poor fit].
As for `C=CCn1c(O)c(C=NCCN(C)C)c(=O)[nH]c1=O`, the cell number change came out at 131%. Also, the AC50 under setting [1] is 0.00411 µM [rising, full curve, poor fit].
As to `COc1cccc(N=Cc2c(O)n(Cc3ccco3)c(=O)[nH]c2=O)c1`, the cell number change is 11.3%. For the same compound, the concentration at half-maximal activity (AC50) under setting [1] is 1.64 µM [rising, single point].
Take `CCCCn1c(O)c(C(C)=NCCCN(CC)CC)c(=O)[nH]c1=O`: under setting [1], the concentration at half-maximal activity (AC50) is 23.1 µM [falling, partial curve].
With `CCC1(CC)C(=O)N(C)C(=O)NC1=NC`, the cell number change is 22.9%. Further, the AC50 under setting [1] was 23.1 µM [rising, single point].
With `O=C1NC(=O)C2(Cc3ccccc3N3CCCC32)C(=O)N1c1cccc(Cl)c1` (configuration not stated), the cell number change turned out to be 0.101%. The AC50 under setting [1] is 0.146 µM [falling, full curve, poor fit].
On to `O=C(COc1ccc2ccccc2c1)N1CCN(C2CCN(Cc3ccccc3)CC2)CC1`, for which, under setting [1], the AC50 was 0.82 µM [falling, single point].
Take `COc1ccc(OC)c(-n2c(O)c(C=NCc3ccc4c(c3)OCO4)c(=O)[nH]c2=O)c1`: the cell number change is -12.5%.
Take `CC(=NCCC1=CCCCC1)c1c(O)[nH]c(=O)[nH]c1=O`: the cell number change is -48.3%. The half-maximal activity concentration (AC50) under setting [2] was 3.66 µM [falling, full curve]. Also, the AC50 under setting [1] is 3.26 µM [falling, full curve].
Regarding `O=C(C1CCN(S(=O)(=O)N2CCOCC2)CC1)N1CCC2(CC1)OCCO2`, the cell number change is -6.59%. The AC50 under setting [1] is 29.1 µM [rising, single point].
For `CC1CCN(CC(=O)c2cccc(C(F)(F)F)c2)CC1`, the cell number change is 2.13%.
`CNC(=O)Oc1ccc(-c2cn3cc(C)ccc3n2)cc1`: the cell number change is 1.58%. The half-maximal activity concentration (AC50) under setting [1] was 0.184 µM [rising, partial curve, poor fit].
`O=P(Oc1ccccc1)(Oc1ccccc1)C(O)c1ccc(Cl)cc1` (configuration not stated): the cell number change is -49.8%. The AC50 under setting [2] was 20.6 µM [falling, single point].
Turning to `Nc1c(C(=O)NCc2ccco2)c2nc3ccccc3nc2n1Cc1ccc(F)cc1`, the cell number change was -83.6%. For the same compound, the AC50 under setting [2] was 3.26 µM [rising, partial curve, poor fit]. In addition, the AC50 under setting [1] was 0.58 µM [rising, single point].
For `CCN(CC)c1ccc(N=Cc2c(O)n(Cc3ccccc3)c(=O)[nH]c2=O)cc1`, the cell number change was 30.8% and 21.3%. Besides, the half-maximal activity concentration (AC50) under setting [2] is 2.59 µM [rising, full curve]. In addition, the AC50 under setting [1] is 5.8 µM [rising, partial curve] and 14.6 µM [rising, partial curve, poor fit].
Consider `COc1ccc(OC)c(N2C(=O)NC(=O)/C(=C\c3ccc([N+](=O)[O-])s3)C2=O)c1`, for which the cell number change was found to be 21.8%.
For the compound `COc1ccc2c(c1)[nH]c1c(C)nccc12`, the cell number change amounted to 28.6%. For the same compound, the AC50 under setting [2] is 0.0731 µM [rising, full curve]. In addition, the concentration at half-maximal activity (AC50) under setting [1] was 0.731 µM [rising, full curve].
In the case of `CC1(C)C(C=C(Cl)Cl)C1C(=O)OCc1cccc(Oc2ccccc2)c1` (configuration not stated), under setting [2], the concentration at half-maximal activity (AC50) was 9.2 µM [rising, partial curve, poor fit].
Regarding `O=C(Nc1ccc(Cl)cc1C(=O)c1ccccc1)c1ccccc1`, the cell number change was -19.9%. Under setting [1], the AC50 was 18.4 µM [falling, single point].
For `C=CCn1c(O)c(C(C)=NCCCN2CCOCC2)c(=O)[nH]c1=O`, the cell number change amounted to 7.05%. Also, the AC50 under setting [2] is 5.17 µM [rising, single point]. Further, under setting [1], the AC50 was 14.6 µM [rising, single point].
For the compound `COCCCNC(=O)c1c(NC(=O)c2ccco2)n(Cc2ccccc2)c2nc3ccccc3nc12`, the cell number change turned out to be 10.2%. The AC50 under setting [1] is 1.84 µM [rising, partial curve].
As to `O=c1[nH]c(=S)n(-c2ccccc2)c(O)c1/C=N/N1CCCCC1c1cccnc1` (configuration not stated), the concentration at half-maximal activity (AC50) under setting [1] is 1.64 µM [rising, partial curve].
Take `COC(=O)C1=C(c2ccc(OC)c(OC)c2)C[C@@H]2CC[C@H]1N2C(=O)NCCNC(C)=O`: the cell number change turned out to be 6.26%.
Consider `CC(C)c1oc(=O)cc2c1[C@@H](O)[C@H]1OC(=O)[C@@]3(C)C[C@@H](O)[C@@H](O)[C@@]2(C)C13` (some centres not stated), for which the cell number change is -26.3%. Also, the AC50 under setting [2] is 0.82 µM [falling, full curve, poor fit]. Also, under setting [1], the AC50 is 1.3 µM [falling, full curve].
Regarding `O=C(Nc1cccc(C(F)(F)F)c1)OC1CN2CCC1CC2` (configuration not stated), the cell number change was found to be 34.5%. In addition, under setting [1], the AC50 was 29.1 µM [rising, single point].
Regarding `CC(=O)OC1N=C(c2ccccc2Cl)c2cc(Br)ccc2NC1=O` (configuration not stated), the cell number change was found to be 27.7%. The AC50 under setting [2] was 3.66 µM [rising, full curve, poor fit]. For the same compound, the half-maximal activity concentration (AC50) under setting [1] is 29.1 µM [rising, single point].
On to `OC(c1ccncc1)(c1ccc(F)cc1)c1ccc(F)cc1`, for which the cell number change worked out at 22.2%. Further, under setting [1], the concentration at half-maximal activity (AC50) was 1.16 µM [falling, single point].
Take `Cc1cc(NC(=O)COC(=O)c2c(C)nn(Cc3ccccc3)c2Cl)no1`: the concentration at half-maximal activity (AC50) by setting is: under setting [2], 0.259 µM [rising, full curve, poor fit]; under setting [1], 1.64 µM [rising, partial curve].
For the compound `COC(=O)C1=C(c2ccc(C(C)=O)cc2)C[C@@H]2CC[C@H]1N2C(=O)N1CCOCC1`, the cell number change amounted to 6.02%. For the same compound, under setting [1], the AC50 is 0.58 µM [rising, full curve, poor fit].
As for `Cc1cc(Cc2c(O)[nH]c(=S)[nH]c2=O)ccc1OC(C)C`, the cell number change is -17%.
Take `CN1CCC(C)(O)C2CCCCC21` (configuration not stated): the cell number change is -21.9%. Also, under setting [1], the AC50 was 29.1 µM [falling, single point].
For the compound `Nc1c(C(=O)NCCN2CCOCC2)c2nc3ccccc3nc2n1Cc1ccccc1`, the cell number change was -33.2%. Also, the AC50 under setting [2] is 16.4 µM [falling, single point]. In addition, the AC50 under setting [1] is 18.4 µM [falling, single point].
On to `Cc1ccc(CN2CC3CC(C2)c2cccc(=O)n2C3)cc1` (configuration not stated), for which the cell number change was -16.3%. The concentration at half-maximal activity (AC50) under setting [1] was 2.91 µM [falling, full curve].
Take `Cc1nn(Cc2ccccc2)c(C)c1C(=O)NCc1ccccc1`: the cell number change was found to be 91.5%.
`C#CCOCCOCCOCCNc1nc(N2CCN(C(=O)CCCCCCCCCCNC(=O)[C@H]([C@@H](C)CC)n3cc(CCCCN=C(N)N)nn3)CC2)nc(N2CCN(C(=O)CCCCCCCCCCNC(=O)[C@H](CO)n3cc(CCCCCN)nn3)CC2)n1`: the cell number change is -87.5%. Also, the AC50 under setting [2] is 11.6 µM [falling, partial curve]. In addition, the AC50 under setting [1] is 25.9 µM [falling, single point].
In the case of `COc1ccc2[nH]c(C)c(CCNCc3cn(C)c4ccccc34)c2c1`, the cell number change was -8.13%. The AC50 under setting [2] was 2.59 µM [rising, single point]. Under setting [1], the concentration at half-maximal activity (AC50) is 2.06 µM [falling, partial curve].
With `COc1cc2c(cc1OC)-c1c(OC)c(OC)cc3c1[C@H](C2)[N+](C)(C)CC3`, the cell number change was -22.6%. For the same compound, the concentration at half-maximal activity (AC50) under setting [1] was 3.66 µM [falling, full curve].
